Source: PubChem BioAssay AID1259308 (NCATS, 2017)

- Screen: 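Knock-downs that increase output of a recombinant reporter protein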 (primary screen)
- Cell system: human HEK293 embryonic kidney cells stably expressing firefly luciferase (HEK-CMV-Luc2-Hygro)
- Reagent: single siRNA against human genes, 0.8 pmol siRNA per well
- Duration: 72 h
- Measured: 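Luciferase light (ONE-Glo) measured on one replicate plate set and viability (CellTiter-Glo) on the other, scaled to a negative control siRNA, with robust z-scores and luciferase per cell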
- Scale: total luciferase, z-score and total luciferase, % of control: higher = more reporter protein produced; luciferase per cell, z-score: higher = more reporter output per viable cell; viable cells, % of control: higher = more viable cells
- Rule for the call: 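Active when the median/MAD z-score for overall luciferase is greater than 3; a gene was taken forward for validation with new siRNAs if at least two of its three siRNAs passed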
- Meaning of the calls: active = raised luciferase; inactive = no rise
This is a random part of about 59,000 deposited reagents. Over the whole deposit, about 1,510 (2.6%) got an active call. 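Calls use total luciferase alone and ignore viability, so some active siRNAs may act by altering cell number.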 A number with no mark means an inactive call. Reagents against one gene are numbered here.

Target gene | siRNA no. | total luciferase, z-score | total luciferase, % of control | luciferase per cell, z-score | viable cells, % of control
KHDC4 (KH domain containing 4, pre-mRNA splicing factor) | 1 | -0.155 | 78.8 | 0.109 | 85.6
KHDC4 (KH domain containing 4, pre-mRNA splicing factor) | 2 | -1.11 | 59.8 | -1.12 | 89.7
KHDC4 (KH domain containing 4, pre-mRNA splicing factor) | 3 | -0.692 | 68.1 | -0.884 | 96.1
PDE10A (phosphodiesterase 10A) | 1 | 1.7 | 116 | 0.817 | 104
PDE10A (phosphodiesterase 10A) | 2 | 0.635 | 94.5 | 0.433 | 94.2
PDE10A (phosphodiesterase 10A) | 3 | -2.41 | 33.9 | -2.86 | 80.4
C8B (complement C8 beta chain) | 1 | 1.56 | 113 | 1.02 | 96.3
C8B (complement C8 beta chain) | 2 | -0.264 | 76.6 | 0.0425 | 84.7
C8B (complement C8 beta chain) | 3 | 0.998 | 102 | 0.619 | 96.6
KAT2A (lysine acetyltransferase 2A) | 1 | -0.249 | 76.9 | 0.366 | 78.1
KAT2A (lysine acetyltransferase 2A) | 2 | -0.173 | 78.4 | -0.205 | 92.5
KAT2A (lysine acetyltransferase 2A) | 3 | -1.22 | 57.6 | -1.55 | 96.8
MAPK7 (mitogen-activated protein kinase 7) | 1 | -1.52 | 51.6 | -1.66 | 89.2
MAPK7 (mitogen-activated protein kinase 7) | 2 | 0.0727 | 83.3 | -0.426 | 104
MAPK7 (mitogen-activated protein kinase 7) | 3 | -0.621 | 69.5 | -0.26 | 83.2
OLMALINC | 1 | 0.0548 | 83 | 0.559 | 80
OLMALINC | 2 | -3.02 | 21.8 | -4.5 | 79.7
OLMALINC | 3 | -0.696 | 68.1 | -1.06 | 101
EDNRA (endothelin receptor type A) | 1 | 1.57 | 113 | 1.52 | 84.8
EDNRA (endothelin receptor type A) | 2 | -1.26 | 56.8 | -1.57 | 96
EDNRA (endothelin receptor type A) | 3 | -0.918 | 63.6 | -1.31 | 100
SACK1G (scaffolding CK1 anchoring protein G) | 1 | 1.19 | 106 | 0.874 | 93.7
SACK1G (scaffolding CK1 anchoring protein G) | 2 | 4.78 (active) | 177 | 2.23 | 110
SACK1G (scaffolding CK1 anchoring protein G) | 3 | 0.155 | 85 | -0.405 | 106
MBD1 (methyl-CpG binding domain protein 1) | 1 | 0.804 | 97.9 | 0.888 | 86.6
MBD1 (methyl-CpG binding domain protein 1) | 2 | -0.151 | 78.9 | -0.185 | 92.5
MBD1 (methyl-CpG binding domain protein 1) | 3 | -2.17 | 38.8 | -2.36 | 80.7
MRAP2 (melanocortin 2 receptor accessory protein 2) | 1 | 0.297 | 87.8 | 1.1 | 73.5
MRAP2 (melanocortin 2 receptor accessory protein 2) | 2 | 0.086 | 83.6 | 0.151 | 89.8
MRAP2 (melanocortin 2 receptor accessory protein 2) | 3 | 0.101 | 83.9 | -0.388 | 104
RELN (reelin) | 1 | 0 | 81.9 | -0.295 | 98.9
RELN (reelin) | 2 | 0.0525 | 82.9 | -0.27 | 99.5
RELN (reelin) | 3 | -0.004 | 81.8 | -0.412 | 102
XTBD1P1 (XTBD1 pseudogene 1) | 1 | -0.432 | 73.3 | 0.644 | 69.1
XTBD1P1 (XTBD1 pseudogene 1) | 2 | -0.787 | 66.2 | 0.253 | 69.2
XTBD1P1 (XTBD1 pseudogene 1) | 3 | 0.0541 | 83 | 0.505 | 81.2
TPTE2P2 (TPTE2 pseudogene 2) | 1 | 0.83 | 98.4 | 0.293 | 102
TPTE2P2 (TPTE2 pseudogene 2) | 2 | 1.97 | 121 | 2.83 | 64.3
TPTE2P2 (TPTE2 pseudogene 2) | 3 | 0.232 | 86.5 | 0.537 | 83.9
POU3F2 (POU class 3 homeobox 2) | 1 | 1.01 | 102 | 2.56 | 58.1
POU3F2 (POU class 3 homeobox 2) | 2 | -0.255 | 76.8 | 0.000416 | 85.8
POU3F2 (POU class 3 homeobox 2) | 3 | -0.749 | 67 | -0.491 | 85.2
CIMAP1C (ciliary microtubule associated protein 1C) | 1 | -0.383 | 74.3 | -0.135 | 86
CIMAP1C (ciliary microtubule associated protein 1C) | 2 | 0.782 | 97.4 | 1.25 | 78.4
CIMAP1C (ciliary microtubule associated protein 1C) | 3 | -2.26 | 36.9 | -2.67 | 83.3
ZNF197 (zinc finger protein 197) | 1 | -0.319 | 75.5 | -0.176 | 88.4
ZNF197 (zinc finger protein 197) | 2 | -0.893 | 64.1 | -0.932 | 91.6
ZNF197 (zinc finger protein 197) | 3 | 0.387 | 89.6 | 2.22 | 55.8
OCLN (occludin) | 1 | -0.344 | 75 | -0.0704 | 85.4
OCLN (occludin) | 2 | -0.017 | 81.5 | -0.112 | 93.9
OCLN (occludin) | 3 | 0.531 | 92.5 | 1.2 | 75.4
PCDH10 (protocadherin 10) | 1 | -1.38 | 54.4 | -1.17 | 82.7
PCDH10 (protocadherin 10) | 2 | 3.61 (active) | 154 | 2.86 | 80.9
PCDH10 (protocadherin 10) | 3 | -1.04 | 61.3 | -1.3 | 96.5
LSMEM1 (leucine rich single-pass membrane protein 1) | 1 | -1.06 | 60.7 | -0.779 | 83.3
LSMEM1 (leucine rich single-pass membrane protein 1) | 2 | -0.0578 | 80.7 | -0.117 | 93
LSMEM1 (leucine rich single-pass membrane protein 1) | 3 | -1.22 | 57.6 | -1.29 | 90.3

Part of the list above, limited to “total luciferase, z-score”.
PCDH10 (protocadherin 10) #2 = 3.61 (active)
PCDH10 (protocadherin 10) #3 = -1.04
LSMEM1 (leucine rich single-pass membrane protein 1) #1 = -1.06
